# Source: the supplement of paper PMC10032668
# Sequences of proteins named here, by UniProt entry; tags and fusion partners are left off.
# WDR77, Q9BQA1, UniProt Q9BQA1, whole entry: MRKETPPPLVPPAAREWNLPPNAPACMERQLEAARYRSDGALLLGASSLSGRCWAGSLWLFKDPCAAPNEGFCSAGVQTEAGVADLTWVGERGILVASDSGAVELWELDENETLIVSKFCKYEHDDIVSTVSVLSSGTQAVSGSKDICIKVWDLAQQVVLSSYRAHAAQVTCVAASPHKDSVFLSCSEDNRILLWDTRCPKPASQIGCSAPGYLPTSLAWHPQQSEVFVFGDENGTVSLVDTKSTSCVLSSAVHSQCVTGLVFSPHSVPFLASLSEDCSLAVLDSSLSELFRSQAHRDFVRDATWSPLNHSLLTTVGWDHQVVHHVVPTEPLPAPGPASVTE
# ITPR2, Q14571, UniProt Q14571, whole entry: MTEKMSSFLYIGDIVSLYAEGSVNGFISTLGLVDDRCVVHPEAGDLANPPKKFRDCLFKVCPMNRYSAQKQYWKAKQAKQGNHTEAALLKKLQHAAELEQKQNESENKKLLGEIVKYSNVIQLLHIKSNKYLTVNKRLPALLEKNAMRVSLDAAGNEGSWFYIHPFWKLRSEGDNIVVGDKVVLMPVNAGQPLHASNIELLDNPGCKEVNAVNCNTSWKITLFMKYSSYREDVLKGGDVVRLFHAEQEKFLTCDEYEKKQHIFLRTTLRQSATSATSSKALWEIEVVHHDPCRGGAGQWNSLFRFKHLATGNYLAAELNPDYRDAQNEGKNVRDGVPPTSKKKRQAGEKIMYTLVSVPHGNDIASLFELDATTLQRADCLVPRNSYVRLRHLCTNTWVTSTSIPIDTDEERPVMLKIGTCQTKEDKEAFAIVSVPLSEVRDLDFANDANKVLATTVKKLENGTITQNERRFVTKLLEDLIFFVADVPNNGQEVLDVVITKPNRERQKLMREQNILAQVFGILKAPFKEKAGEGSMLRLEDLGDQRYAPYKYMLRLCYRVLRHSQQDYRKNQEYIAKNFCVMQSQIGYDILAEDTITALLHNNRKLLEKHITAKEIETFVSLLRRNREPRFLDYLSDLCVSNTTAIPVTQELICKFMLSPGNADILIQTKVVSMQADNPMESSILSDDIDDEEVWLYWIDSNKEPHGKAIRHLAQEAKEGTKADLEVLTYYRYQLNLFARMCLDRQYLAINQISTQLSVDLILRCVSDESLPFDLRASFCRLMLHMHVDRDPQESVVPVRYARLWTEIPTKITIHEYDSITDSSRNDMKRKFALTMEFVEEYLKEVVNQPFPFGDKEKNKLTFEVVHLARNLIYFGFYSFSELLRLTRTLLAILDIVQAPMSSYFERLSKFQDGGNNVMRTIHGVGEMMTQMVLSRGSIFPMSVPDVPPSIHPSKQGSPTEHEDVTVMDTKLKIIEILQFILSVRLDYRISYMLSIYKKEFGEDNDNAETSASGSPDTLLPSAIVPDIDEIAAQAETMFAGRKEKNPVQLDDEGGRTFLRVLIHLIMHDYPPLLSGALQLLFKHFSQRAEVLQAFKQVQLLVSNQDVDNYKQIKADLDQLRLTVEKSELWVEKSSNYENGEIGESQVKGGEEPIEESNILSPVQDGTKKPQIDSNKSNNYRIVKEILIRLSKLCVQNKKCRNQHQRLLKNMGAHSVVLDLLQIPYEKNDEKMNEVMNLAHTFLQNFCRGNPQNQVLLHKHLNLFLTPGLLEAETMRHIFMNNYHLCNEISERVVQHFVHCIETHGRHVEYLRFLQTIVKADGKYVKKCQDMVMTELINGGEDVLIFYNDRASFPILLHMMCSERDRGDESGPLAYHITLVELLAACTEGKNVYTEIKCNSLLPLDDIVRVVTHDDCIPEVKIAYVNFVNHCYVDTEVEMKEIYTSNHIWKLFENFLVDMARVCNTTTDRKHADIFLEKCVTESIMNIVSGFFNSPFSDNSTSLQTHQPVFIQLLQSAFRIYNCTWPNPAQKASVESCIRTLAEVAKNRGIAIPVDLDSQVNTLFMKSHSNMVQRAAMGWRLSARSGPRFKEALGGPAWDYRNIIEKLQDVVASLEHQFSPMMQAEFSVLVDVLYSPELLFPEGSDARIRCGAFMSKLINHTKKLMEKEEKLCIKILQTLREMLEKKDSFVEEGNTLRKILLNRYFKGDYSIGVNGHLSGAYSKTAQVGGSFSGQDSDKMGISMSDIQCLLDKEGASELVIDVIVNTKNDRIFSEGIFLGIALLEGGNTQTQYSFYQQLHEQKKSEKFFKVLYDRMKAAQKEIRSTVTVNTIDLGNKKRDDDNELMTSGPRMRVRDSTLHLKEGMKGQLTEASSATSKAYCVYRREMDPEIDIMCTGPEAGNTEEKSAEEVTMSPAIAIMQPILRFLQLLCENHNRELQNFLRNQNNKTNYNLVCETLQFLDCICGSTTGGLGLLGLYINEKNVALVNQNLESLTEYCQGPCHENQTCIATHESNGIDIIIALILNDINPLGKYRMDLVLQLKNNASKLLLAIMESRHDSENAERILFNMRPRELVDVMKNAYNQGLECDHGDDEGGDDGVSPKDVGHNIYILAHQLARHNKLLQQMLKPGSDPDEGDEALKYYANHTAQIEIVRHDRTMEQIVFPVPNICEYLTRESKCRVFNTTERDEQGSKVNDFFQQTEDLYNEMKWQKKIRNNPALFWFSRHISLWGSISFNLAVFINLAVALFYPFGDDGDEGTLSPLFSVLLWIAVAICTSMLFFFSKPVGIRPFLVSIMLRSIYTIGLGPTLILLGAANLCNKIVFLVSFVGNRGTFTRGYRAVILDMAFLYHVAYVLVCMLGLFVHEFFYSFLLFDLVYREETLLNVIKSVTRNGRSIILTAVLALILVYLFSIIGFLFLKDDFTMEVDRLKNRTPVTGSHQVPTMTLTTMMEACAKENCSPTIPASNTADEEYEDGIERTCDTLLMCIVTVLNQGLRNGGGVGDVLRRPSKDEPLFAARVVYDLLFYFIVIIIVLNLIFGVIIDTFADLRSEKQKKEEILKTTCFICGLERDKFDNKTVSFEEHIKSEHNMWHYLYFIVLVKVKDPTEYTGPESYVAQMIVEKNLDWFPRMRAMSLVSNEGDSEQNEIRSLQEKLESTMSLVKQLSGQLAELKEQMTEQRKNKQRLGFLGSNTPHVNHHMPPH
# NDUFA12, Q9UI09, UniProt Q9UI09, whole entry: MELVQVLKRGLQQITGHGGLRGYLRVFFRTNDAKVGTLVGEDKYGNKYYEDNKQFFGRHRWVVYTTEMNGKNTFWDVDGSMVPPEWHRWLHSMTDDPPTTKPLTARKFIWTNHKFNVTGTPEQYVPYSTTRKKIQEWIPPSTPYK
# USP9X, Q93008, UniProt Q93008, whole entry: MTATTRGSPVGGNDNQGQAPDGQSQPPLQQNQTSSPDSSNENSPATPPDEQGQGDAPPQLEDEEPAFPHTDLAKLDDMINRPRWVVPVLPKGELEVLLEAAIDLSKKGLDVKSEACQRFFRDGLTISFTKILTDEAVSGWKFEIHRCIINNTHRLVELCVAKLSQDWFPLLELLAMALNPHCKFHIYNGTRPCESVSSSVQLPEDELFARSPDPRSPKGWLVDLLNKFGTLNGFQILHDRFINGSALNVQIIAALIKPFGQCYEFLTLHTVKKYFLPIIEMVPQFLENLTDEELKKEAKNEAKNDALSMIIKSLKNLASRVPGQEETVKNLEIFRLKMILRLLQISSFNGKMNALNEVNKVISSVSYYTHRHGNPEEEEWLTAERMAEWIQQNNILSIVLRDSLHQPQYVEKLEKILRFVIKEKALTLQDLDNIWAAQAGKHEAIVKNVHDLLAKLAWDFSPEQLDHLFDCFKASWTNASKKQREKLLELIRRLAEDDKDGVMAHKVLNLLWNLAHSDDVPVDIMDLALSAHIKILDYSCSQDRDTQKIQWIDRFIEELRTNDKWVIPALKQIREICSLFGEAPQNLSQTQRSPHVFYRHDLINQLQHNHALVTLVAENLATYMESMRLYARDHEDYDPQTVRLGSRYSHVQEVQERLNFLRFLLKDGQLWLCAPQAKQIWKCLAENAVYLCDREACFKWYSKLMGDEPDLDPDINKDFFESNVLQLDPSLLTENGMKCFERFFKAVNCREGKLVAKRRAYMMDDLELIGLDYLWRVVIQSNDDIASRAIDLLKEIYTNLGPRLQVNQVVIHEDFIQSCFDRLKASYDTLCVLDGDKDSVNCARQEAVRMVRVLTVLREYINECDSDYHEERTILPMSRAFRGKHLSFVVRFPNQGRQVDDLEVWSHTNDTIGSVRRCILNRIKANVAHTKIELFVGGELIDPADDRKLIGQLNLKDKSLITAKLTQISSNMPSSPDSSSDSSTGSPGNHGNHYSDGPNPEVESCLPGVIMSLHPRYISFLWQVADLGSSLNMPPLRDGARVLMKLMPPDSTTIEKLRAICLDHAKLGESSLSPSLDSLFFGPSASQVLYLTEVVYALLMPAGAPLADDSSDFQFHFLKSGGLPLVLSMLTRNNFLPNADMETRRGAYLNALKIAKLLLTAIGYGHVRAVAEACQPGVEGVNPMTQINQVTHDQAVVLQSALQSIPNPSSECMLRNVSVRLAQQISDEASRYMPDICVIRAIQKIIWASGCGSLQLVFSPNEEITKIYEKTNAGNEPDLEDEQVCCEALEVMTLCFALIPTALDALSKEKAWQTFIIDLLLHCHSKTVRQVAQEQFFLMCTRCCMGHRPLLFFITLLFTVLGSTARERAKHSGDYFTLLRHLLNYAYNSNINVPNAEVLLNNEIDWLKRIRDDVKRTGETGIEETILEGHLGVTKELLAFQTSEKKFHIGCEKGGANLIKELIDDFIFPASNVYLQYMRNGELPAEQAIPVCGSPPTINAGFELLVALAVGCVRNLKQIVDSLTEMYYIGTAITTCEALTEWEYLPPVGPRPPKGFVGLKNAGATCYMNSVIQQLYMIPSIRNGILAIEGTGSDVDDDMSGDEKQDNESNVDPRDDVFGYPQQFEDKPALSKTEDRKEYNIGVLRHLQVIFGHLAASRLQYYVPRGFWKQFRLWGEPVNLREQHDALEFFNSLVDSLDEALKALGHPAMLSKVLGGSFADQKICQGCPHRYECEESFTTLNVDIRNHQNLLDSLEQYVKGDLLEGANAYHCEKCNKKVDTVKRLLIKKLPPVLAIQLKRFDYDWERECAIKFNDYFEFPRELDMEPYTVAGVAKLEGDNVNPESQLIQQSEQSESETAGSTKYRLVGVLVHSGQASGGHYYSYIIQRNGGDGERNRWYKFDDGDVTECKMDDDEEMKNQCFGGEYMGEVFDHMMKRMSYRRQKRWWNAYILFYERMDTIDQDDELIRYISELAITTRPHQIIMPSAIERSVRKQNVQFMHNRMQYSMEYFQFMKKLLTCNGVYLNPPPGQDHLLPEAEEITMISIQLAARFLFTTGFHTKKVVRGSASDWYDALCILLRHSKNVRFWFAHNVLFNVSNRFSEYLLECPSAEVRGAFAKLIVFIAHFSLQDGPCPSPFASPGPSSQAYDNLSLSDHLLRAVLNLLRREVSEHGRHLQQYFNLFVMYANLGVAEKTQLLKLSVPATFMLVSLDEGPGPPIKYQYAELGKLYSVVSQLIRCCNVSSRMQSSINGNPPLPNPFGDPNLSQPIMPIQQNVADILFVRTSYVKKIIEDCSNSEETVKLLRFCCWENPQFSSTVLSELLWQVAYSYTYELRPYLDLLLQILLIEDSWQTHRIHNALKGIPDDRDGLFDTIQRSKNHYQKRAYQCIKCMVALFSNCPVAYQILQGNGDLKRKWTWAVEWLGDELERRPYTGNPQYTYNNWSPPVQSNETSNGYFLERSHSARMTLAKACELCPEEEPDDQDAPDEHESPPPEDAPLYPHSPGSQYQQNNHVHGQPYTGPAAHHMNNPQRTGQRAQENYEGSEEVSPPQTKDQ
# IDH1, O75874, UniProt O75874, whole entry: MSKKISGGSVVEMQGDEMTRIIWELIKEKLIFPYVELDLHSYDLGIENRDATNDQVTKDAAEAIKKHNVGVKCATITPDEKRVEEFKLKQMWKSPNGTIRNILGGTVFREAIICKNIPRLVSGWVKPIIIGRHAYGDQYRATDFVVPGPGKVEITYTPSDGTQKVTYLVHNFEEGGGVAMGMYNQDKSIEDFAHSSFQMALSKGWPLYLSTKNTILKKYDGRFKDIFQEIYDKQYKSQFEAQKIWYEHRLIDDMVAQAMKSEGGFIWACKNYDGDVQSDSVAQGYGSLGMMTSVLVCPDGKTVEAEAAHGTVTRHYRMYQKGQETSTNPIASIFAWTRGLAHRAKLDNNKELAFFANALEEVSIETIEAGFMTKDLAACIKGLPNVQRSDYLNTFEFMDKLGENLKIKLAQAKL
# NELFE, P18615, UniProt P18615, whole entry: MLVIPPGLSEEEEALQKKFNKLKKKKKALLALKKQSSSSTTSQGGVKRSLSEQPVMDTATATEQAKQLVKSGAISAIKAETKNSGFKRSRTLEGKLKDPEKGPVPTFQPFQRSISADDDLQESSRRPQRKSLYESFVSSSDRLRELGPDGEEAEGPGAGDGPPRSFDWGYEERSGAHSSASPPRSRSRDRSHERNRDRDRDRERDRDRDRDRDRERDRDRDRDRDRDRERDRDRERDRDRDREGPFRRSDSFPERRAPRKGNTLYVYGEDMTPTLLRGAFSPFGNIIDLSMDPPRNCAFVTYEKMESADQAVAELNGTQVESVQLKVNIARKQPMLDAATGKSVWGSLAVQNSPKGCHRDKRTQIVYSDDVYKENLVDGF
# The other results are listed elsewhere or left out. The list holds hits alone, and they repeat only in part.
# Experiments:
# Experiment in all cases: PRISMA enrichment of interactor (LFQ) in peptide spot vs all other peptide spots (log2 fold change); higher = stronger / more specific binding of the interactor to the peptide
# GPC1, P35052 = target: GPC1, P35052
# Description: (§1)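 PRISMA: 221 full-length sORF-encoded peptides (3-15 aa), plus SOS1/GLUT1 control peptides, were spot-synthesized on cellulose membranes in triplicate. Membranes were incubated with HEK293T lysate, and bound proteins were identified by LC-MS/MS with LFQ. Enrichment is the log2 fold change versus all other peptide spots; only significant interactors are listed (cutoff c=6, x0=2.8).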
# ISCU, Q9H1K1 = target: ISCU, Q9H1K1
# Description: as §1
# NAP1L1, P55209 = target: NAP1L1, P55209
# Description: as §1
# PAXBP1, Q9Y5B6 = target: PAXBP1, Q9Y5B6
# Description: as §1
# ROMO1, P60602 = target: ROMO1, P60602
# Description: as §1
# RPS19BP1, Q86WX3 = target: RPS19BP1, Q86WX3
# Description: as §1
# SRPRA, P08240 = target: SRPRA, P08240
# Description: as §1
# VPS52, Q8N1B4 = target: VPS52, Q8N1B4
# Description: as §1
# WDR61, Q9GZS3 = target: WDR61, Q9GZS3
# Description: as §1
# WDR77, Q9BQA1 = target: WDR77, Q9BQA1
# Description: as §1
# ZNF622, Q969S3 = target: ZNF622, Q969S3
# Description: as §1
# GABARAPL2, P60520 = target: GABARAPL2, P60520
# Description: as §1
# HMGCL, P35914 = target: HMGCL, P35914
# Description: as §1
# ITPR2, Q14571 = target: ITPR2, Q14571
# Description: as §1
# P3H1, Q32P28 = target: P3H1, Q32P28
# Description: as §1
# PDAP1, Q13442 = target: PDAP1, Q13442
# Description: as §1
# VANGL1, Q8TAA9 = target: VANGL1, Q8TAA9
# Description: as §1
# WDR70, Q9NW82 = target: WDR70, Q9NW82
# Description: as §1
# NDUFA12, Q9UI09 = target: NDUFA12, Q9UI09
# Description: as §1
# UBE2R2, Q712K3 = target: UBE2R2, Q712K3
# Description: as §1
# HNRNPUL1, Q9BUJ2 = target: HNRNPUL1, Q9BUJ2
# Description: as §1
# LSM8, O95777 = target: LSM8, O95777
# Description: as §1
# MICU2, Q8IYU8 = target: MICU2, Q8IYU8
# Description: as §1
# RAB6A, P20340 = target: RAB6A, P20340
# Description: as §1
# RMI2, Q96E14 = target: RMI2, Q96E14
# Description: as §1
# SRSF8, Q9BRL6 = target: SRSF8, Q9BRL6
# Description: as §1
# TUBB4A, P04350 = target: TUBB4A, P04350
# Description: as §1
# UBAC2, Q8NBM4 = target: UBAC2, Q8NBM4
# Description: as §1
# MPHOSPH10, O00566 = target: MPHOSPH10, O00566
# Description: as §1
# NAA50, Q9GZZ1 = target: NAA50, Q9GZZ1
# Description: as §1
# RBM15, Q96T37 = target: RBM15, Q96T37
# Description: as §1
# SDC4, P31431 = target: SDC4, P31431
# Description: as §1
# SNU13, P55769 = target: SNU13, P55769
# Description: as §1
# USP9X, Q93008 = target: USP9X, Q93008
# Description: as §1
# IDH1, O75874 = target: IDH1, O75874
# Description: as §1
# MRPL57, Q9BQC6 = target: MRPL57, Q9BQC6
# Description: as §1
# SPATS2, Q86XZ4 = target: SPATS2, Q86XZ4
# Description: as §1
# STX5, Q13190 = target: STX5, Q13190
# Description: as §1
# HBB, P68871 = target: HBB, P68871
# Description: as §1
# [1] = substrate: PPIF, P30405
# Description: as §1
# PPIL1, Q9Y3C6 = target: PPIL1, Q9Y3C6
# Description: as §1
# SF3B4, Q15427 = target: SF3B4, Q15427
# Description: as §1
# HOMER1, Q86YM7 = target: HOMER1, Q86YM7
# Description: as §1
# NUTF2, P61970 = target: NUTF2, P61970
# Description: as §1
# SNRNP40, Q96DI7 = target: SNRNP40, Q96DI7
# Description: as §1
# SPAG9, O60271 = target: SPAG9, O60271
# Description: as §1
# NCOR2, Q9Y618 = target: NCOR2, Q9Y618
# Description: as §1
# RPS6KA3, P51812 = target: RPS6KA3, P51812
# Description: as §1
# TPT1, P13693 = target: TPT1, P13693
# Description: as §1
# YTHDC1, Q96MU7 = target: YTHDC1, Q96MU7
# Description: as §1
# ITGA6, P23229 = target: ITGA6, P23229
# Description: as §1
# NELFE, P18615 = target: NELFE, P18615
# Description: as §1
# PSMF1, Q92530 = target: PSMF1, Q92530
# Description: as §1
# PSMG1, O95456 = target: PSMG1, O95456
# Description: as §1
# LGALS4, P56470 = target: LGALS4, P56470
# Description: as §1
# EIF6, P56537 = target: EIF6, P56537
# Description: as §1
# LAMP1, P11279 = target: LAMP1, P11279
# Description: as §1
# NAA40, Q86UY6 = target: NAA40, Q86UY6
# Description: as §1
# RCN2, Q14257 = target: RCN2, Q14257
# Description: as §1
# RPS29, P62273 = target: RPS29, P62273
# Description: as §1
# SRSF9, Q13242 = target: SRSF9, Q13242
# Description: as §1
binder,measurement,setting,value
MAAAALKAAAFGR [KDM5C],PRISMA enrichment of interactor (log2),"GPC1, P35052",7.09
same,PRISMA enrichment of interactor (log2),"ISCU, Q9H1K1",7.79
same,PRISMA enrichment of interactor (log2),"NAP1L1, P55209",6.64
same,PRISMA enrichment of interactor (log2),"PAXBP1, Q9Y5B6",6.12
same,PRISMA enrichment of interactor (log2),"ROMO1, P60602",5.68
same,PRISMA enrichment of interactor (log2),"RPS19BP1, Q86WX3",6.59
same,PRISMA enrichment of interactor (log2),"SRPRA, P08240",6.54
same,PRISMA enrichment of interactor (log2),"VPS52, Q8N1B4",9.08
same,PRISMA enrichment of interactor (log2),"WDR61, Q9GZS3",4.69
same,PRISMA enrichment of interactor (log2),"WDR77, Q9BQA1",8.03
same,PRISMA enrichment of interactor (log2),"ZNF622, Q969S3",7.81
MQPSGPRGWTLL [CHID1],PRISMA enrichment of interactor (log2),"GABARAPL2, P60520",4.97
same,PRISMA enrichment of interactor (log2),"HMGCL, P35914",3.95
same,PRISMA enrichment of interactor (log2),"ITPR2, Q14571",3.62
same,PRISMA enrichment of interactor (log2),"P3H1, Q32P28",6.53
same,PRISMA enrichment of interactor (log2),"PDAP1, Q13442",5.44
same,PRISMA enrichment of interactor (log2),"VANGL1, Q8TAA9",3.91
same,PRISMA enrichment of interactor (log2),"WDR70, Q9NW82",4.09
MLELK [C6orf62],PRISMA enrichment of interactor (log2),"NDUFA12, Q9UI09",6.01
same,PRISMA enrichment of interactor (log2),"UBE2R2, Q712K3",4.89
MRHCVPASLSFWQRL [GPAT4],PRISMA enrichment of interactor (log2),"HNRNPUL1, Q9BUJ2",6.51
same,PRISMA enrichment of interactor (log2),"LSM8, O95777",4.96
same,PRISMA enrichment of interactor (log2),"MICU2, Q8IYU8",4.28
same,PRISMA enrichment of interactor (log2),"RAB6A, P20340",5.35
same,PRISMA enrichment of interactor (log2),"RMI2, Q96E14",5.38
same,PRISMA enrichment of interactor (log2),"SRSF8, Q9BRL6",5.87
same,PRISMA enrichment of interactor (log2),"TUBB4A, P04350",4.21
same,PRISMA enrichment of interactor (log2),"UBAC2, Q8NBM4",3.91
MEVRKGNQLTQEPE [MGAT5],PRISMA enrichment of interactor (log2),"MPHOSPH10, O00566",5.44
same,PRISMA enrichment of interactor (log2),"NAA50, Q9GZZ1",4.78
same,PRISMA enrichment of interactor (log2),"RBM15, Q96T37",5.33
same,PRISMA enrichment of interactor (log2),"SDC4, P31431",4.41
same,PRISMA enrichment of interactor (log2),"SNU13, P55769",5.62
same,PRISMA enrichment of interactor (log2),"USP9X, Q93008",5.6
MDVSTMERTVL [HIVEP2],PRISMA enrichment of interactor (log2),"IDH1, O75874",5.49
same,PRISMA enrichment of interactor (log2),"MRPL57, Q9BQC6",5.33
same,PRISMA enrichment of interactor (log2),"SPATS2, Q86XZ4",4.03
same,PRISMA enrichment of interactor (log2),"STX5, Q13190",5.68
MSRRDEGPESL [SLC39A7],PRISMA enrichment of interactor (log2),"HBB, P68871",6.33
same,PRISMA enrichment of interactor (log2),[1],8.36
same,PRISMA enrichment of interactor (log2),"PPIL1, Q9Y3C6",4.89
same,PRISMA enrichment of interactor (log2),"SF3B4, Q15427",4.93
MYWRPDQKPF [GNB1],PRISMA enrichment of interactor (log2),"HOMER1, Q86YM7",4.1
same,PRISMA enrichment of interactor (log2),"NUTF2, P61970",5.34
same,PRISMA enrichment of interactor (log2),"SNRNP40, Q96DI7",4.34
same,PRISMA enrichment of interactor (log2),"SPAG9, O60271",4.07
MIFFKDGLEMEKC [NHSL2],PRISMA enrichment of interactor (log2),"NCOR2, Q9Y618",5.41
same,PRISMA enrichment of interactor (log2),"RPS6KA3, P51812",4.42
same,PRISMA enrichment of interactor (log2),"TPT1, P13693",7.27
same,PRISMA enrichment of interactor (log2),"YTHDC1, Q96MU7",7.15
MLRAEALPVT [KLF9],PRISMA enrichment of interactor (log2),"ITGA6, P23229",7.82
same,PRISMA enrichment of interactor (log2),"NELFE, P18615",8.47
same,PRISMA enrichment of interactor (log2),"PSMF1, Q92530",4.01
same,PRISMA enrichment of interactor (log2),"PSMG1, O95456",5.2
MVETRRKYE [ABCA8],PRISMA enrichment of interactor (log2),"LGALS4, P56470",5.24
same,PRISMA enrichment of interactor (log2),"MPHOSPH10, O00566",7.18
MGPGSAR [STAT6],PRISMA enrichment of interactor (log2),"EIF6, P56537",4.95
same,PRISMA enrichment of interactor (log2),"LAMP1, P11279",5.48
same,PRISMA enrichment of interactor (log2),"NAA40, Q86UY6",4.1
same,PRISMA enrichment of interactor (log2),"RCN2, Q14257",6.39
same,PRISMA enrichment of interactor (log2),"RPS29, P62273",5.19
same,PRISMA enrichment of interactor (log2),"SRSF9, Q13242",6.23

# Pulled one by one from the entries so far, 5 records:
binder,measurement,setting,value
MQPSGPRGWTLL [CHID1],PRISMA enrichment of interactor (log2),"VANGL1, Q8TAA9",3.91
MLELK [C6orf62],PRISMA enrichment of interactor (log2),"UBE2R2, Q712K3",4.89
MEVRKGNQLTQEPE [MGAT5],PRISMA enrichment of interactor (log2),"USP9X, Q93008",5.6
MAAAALKAAAFGR [KDM5C],PRISMA enrichment of interactor (log2),"NAP1L1, P55209",6.64
MDVSTMERTVL [HIVEP2],PRISMA enrichment of interactor (log2),"SPATS2, Q86XZ4",4.03
